Results from patent US9528156B2, “Method for determining the predisposition of a patient to changed biotransformation and to the development of undesired drug effects in a treatment of the patient with atrovastatin” (Robert Bosch GmbH, priority 2009, dated 2016).

What was measured:
[1] = test system: cytochrome P450 CYP3A subfamily (CYP3A4 and CYP3A5); conditions: recombinantly expressed CYP enzymes
UGT1A3 = conditions: human liver microsomes, only heterozygotic carriers

lactone formation in carriers of UGT1A3*3 and *6 haplotypes (UGT1A3): no increased lactone formation
Structure (SMILES): CC(C)c1c(C(=O)Nc2ccccc2)c(-c2ccccc2)c(-c2ccc(F)cc2)n1CC[C@@H](O)C[C@@H](O)CC(=O)O [atorvastatin]
P450 enzymes catalyzing ATV hydroxylation [1]: the only relevant P450 enzymes which catalyze the ATV hydroxylation
